3 substances from patent US10221213 (dated 2019) can be followed below.

This series is described as follows: general procedure: solution-phase peptide synthesis; EDC, HOBt. To be noted: for crude HPLC purity: 210 nm.
Where [1] appears, read: late stage modification step, acetate, run 1.
The mark [2] stands for this setting: late stage modification step, acetate, run 2.

“D-arginyl-2,6-dimethyl-L-tyrosyl-L-lysyl-L-phenylalaninamide”: the “crude HPLC purity” value runs as follows: under setting [1], 84 area %; under setting [2], 95 area %. Also, the step yield is listed as 99% under setting [1]; 95% under setting [2]; 94% (late stage modification step, acetate, run 3); 92% (late stage modification step, acetate, run 4); 34% (late stage modification step, tris trifluoroacetate, run 1); “adjusted yield of 67%” (late stage modification step, tris trifluoroacetate, run 2).

For the substance “N^2-[(benzyloxy)carbonyl]-N^5-[{[(benzyloxy)carbonyl]amino}{[(benzyloxy)carbonyl]imino}methyl]-D-ornithyl-2,6-dimethyl-L-tyrosyl-N^6-{[(2-chlorobenzyl)oxy]carbonyl}-L-lysyl-L-phenylalaninamide”, for the setting “coupling step, acetate”, the step yield turned out to be 73%.

Turning to “N^5-[amino(nitroimino)methyl]-N^2-(tert-butoxycarbonyl)-D-ornithyl-2,6-dimethyl-L-tyrosyl-N^6-{[(2-chlorobenzyl)oxy]carbonyl}-L-lysyl-L-phenylalaninamide”, the step yield (coupling step, acetate) stood at 90%.
